{
  "source": "patent US11685739B2",
  "about": "“High penetration drugs and their compositions thereof for treatment of Parkinson diseases” (TECHFIELDS PHARMA CO., LTD, priority 2013, dated 2023)",
  "test_system": "motor function deficits induced by 6-OHDA in Parkinson's disease (PD) model",
  "assay": "Rotarod test in rats with 6-OHDA lesion, Parkinson's disease (PD) model",
  "format": "in vivo, Sprague-Dawley rats",
  "settings": "Example 37, entacapone 25 mg/kg orally, 4 weeks treatment",
  "experimental": "Test subjects (Sprague-Dawley rats) were prepared, grouped, and tested following the protocol below: • 1. 200 Sprague-Dawley rats (male, 200-230 g) underwent brain stereotaxic surgery after 1 week acclamation in animal facility; • 2. After anesthesia, a bur hole (1 mm in diameter) was made on skull on the left side with a motor drill based on the coordinates: AP +0.5 mm, ML −2.8 mm, DV 6.0 mm relative to Bregma; • 3. 6-OHDA (20 μg at 5 mg/mL) or sterile saline was injected into the left striatum with a microsyringe fitted with a 26-gauge steel cannula. The chemical caused the retrograde neurodegeneration in the distal substantia nigra and impairs dopamine transmission in the nigro-striatal pathway, which eventually led to functional disturbance of motor activities; • 4. Apomorphine and classic rotation test was carried out to screen animals at the end of week 3 post 6-OHDA treatment. Animals that matched lesion type and apomorphine-induced rotational scores were allotted to 11 groups; and • 5. Rats were divided into 11 groups (n=12), each group was applied with the drug(s) at the doses specified in Table 2:\n• 6. Dose Formulations • (1) L-DOPA in water (3 mg/mL) was the positive control solution for group 1 (orally for group 1, transdermally for groups 2-11). The volume of administration was 2 mL/kg. Vehicle solution (negative control solution for group 2) was 30% ethanol (v/v). […]",
  "note": "At least one structure is not confirmed: it was looked up by name or label, or the drawing left a doubt.",
  "data": [
    {"compound": "CCN(CC)C(=O)/C(C#N)=C/c1cc(O)c(O)c([N+](=O)[O-])c1", "note": "[entacapone]", "values": [
      {"measurement": "Effect on efficacy of L-Dopa and pro-drug of L-Dopa treated groups", "setting": "groups 1, 3, 4, 5, 6, 7, 9, 10 (L-DOPA, Drug A)", "result": "increased efficacy"},
      {"measurement": "Effect on efficacy of vehicle group and pro-drug of aspirin treated groups", "setting": "groups 2, 8 and 11 (Drug B)", "result": "did not change the efficacy"}
    ]}
  ]
}
